{
  "sequences": {"note": "Amino acid sequences for entries named in this document (tags omitted).", "UniProt P08659, whole entry, looked up": "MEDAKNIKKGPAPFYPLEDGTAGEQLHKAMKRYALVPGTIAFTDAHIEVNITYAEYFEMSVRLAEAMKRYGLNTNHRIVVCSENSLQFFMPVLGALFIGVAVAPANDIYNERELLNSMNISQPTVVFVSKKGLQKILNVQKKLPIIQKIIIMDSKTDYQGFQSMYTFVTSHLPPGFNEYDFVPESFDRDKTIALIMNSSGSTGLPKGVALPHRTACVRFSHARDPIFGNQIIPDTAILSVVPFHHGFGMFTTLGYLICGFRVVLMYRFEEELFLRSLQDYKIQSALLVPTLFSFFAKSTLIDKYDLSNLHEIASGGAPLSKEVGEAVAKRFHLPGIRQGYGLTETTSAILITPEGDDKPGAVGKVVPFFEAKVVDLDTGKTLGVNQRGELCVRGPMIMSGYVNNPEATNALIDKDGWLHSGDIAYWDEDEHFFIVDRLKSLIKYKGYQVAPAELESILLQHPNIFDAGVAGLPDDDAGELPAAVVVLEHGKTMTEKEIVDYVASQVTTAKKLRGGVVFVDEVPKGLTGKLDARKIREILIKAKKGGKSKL"},
  "source": "PubChem BioAssay AID488838",
  "about": "(National Center for Advancing Translational Sciences (NCATS), 2010)",
  "note": "The shares of active, inactive and inconclusive entries below differ from those in the screen. Potencies beside an inconclusive call are fits to weak or partial responses and may not hold up. Active and inactive are the calls of the source. The call rests on the fitted dose curve; in most records, active means well fitted inhibition curve with a large enough effect; inconclusive means small, poorly fitted or top-dose-only effect; inactive means flat fitted curve, though single readings scatter.",
  "data": [
    {"target": "Luciferin 4-monooxygenase (Photinus pyralis) (UniProt P08659)", "assay": "Counterscreen Assay for Enhancers of SMN2 Splice Variant Expression: Interaction with Luciferase Reporter for Further Probe SAR", "conditions": "purified firefly luciferase, luminescence, 5 min; series mostly up to 57.5 µM; activity change, negative = inhibition: at the top concentration", "excerpt": "NIH Chemical Genomics Center [NCGC] NIH Molecular Libraries Probe Production centers Network [MLPCN] MLPCN Grant: R03 MH084179-01 Assay Submitter (PI): Elliot Androphy NCGC Assay Overview: Spinal muscular atrophy (SMA) is caused by insufficient levels of the survival motor neuron protein SMN. The SMN locus on chromosome 5q13 contains two inverted copies of SMN called SMN1 and SMN2 which are 99% identical at the amino acid level. SMN1 is a fully functional protein and SMN2 skips exon 7 90% of the time. Skipping of exon 7 produces non-functional protein product. 10% of the SMN2 protein includes exon 7 and is fully functional. In the SMA disease state, mutations in the SMN1 locus are the cause of the disease state. Because only 10% of SMN2 is of the fully functional form, it is not sufficient to overcome the deficiency produced by the loss of the SMN1 product. A therapy that either increases the amount of SMN2 product made increases the inclusion of exon 7 has been proposed for the treatment of SMA. We have designed an assay to identify small molecules that can increase the amount of functional SMN2 product by appending a luciferase reporter gene after the native SMN2 gene, such that inclusion of exon 7 in the expressed product places the luciferase sequence in frame, thus generating functional luciferase enzyme. One potential source of false positives in the primary screening assay is stabilization of the reporter luciferase via direct binding. This assay attempts to identify such compounds by screening directly for luciferase activity in the absence of the cellular system.\nNCGC Assay Protocol Summary: The primary screen utilizes a luciferase reporter gene assay, combining the promoter and splicing based cassettes in tandem with the major portion of the native SMN1 cDNA, and then transfected into HEK293 cells. Compounds that modulate luciferase signal presumably modulate expression of […]. In this assay, we utilize purified firefly luciferase in lieu of a cellular reporter to identify compounds interacting directly with luciferase in the primary screen. Sequence, Parameter, Value, Description (1) Reagent, 2.5 uL, Enzyme in buffer (note A) (2) Compound, 23 nL, From stock solutions (3) Time, 5 minutes, Room temp (4) Reagent#2.5 ul, Luciferase detection reagent (note B) (5) Detector, 1 sec integrate, Luminescent read on Viewlux (note C) Sigma enzyme (1 mg) considered to be MW 61,000 diluted in 357 ul assay buffer to 50 uM stock. A - Enzyme and buffer consists of 50 mM Tris-acetate pH 7.6, 10 mM Mg acetate 0.05% BSA, 0.01% Tween and 5 nM firefly luciferase B - Detection reagent = britelite plus diluted 1:10 in PBS C - Viewlux settings were 1 second integration medium sensitivity Keywords: Spinal muscular atrophy, SMA, SMN2, high throughput screening, MLSMR, MLPCN, NIH Roadmap, qHTS and NCGC", "values": [
      {"smiles": "CN(C)c1cccc(-c2nc(N3CCC(C(N)=O)CC3)ncc2F)c1", "Potency": "inconclusive: 40.1 µM [inhibitor, partial curve]"},
      {"smiles": "NC(=O)C1CCN(c2nnc(-c3ccc(Br)cc3)s2)CC1", "activity change, negative = inhibition": "inactive: -22.2%"},
      {"smiles": "CN(C)c1cccc(-c2cnc(N3CCC(C(N)=O)CC3)nc2)c1", "Potency": "active: 11.3 µM"},
      {"smiles": "Brc1ccc(-c2csc(N3CCNCC3)n2)cc1", "activity change, negative = inhibition": "inactive: -8.89%"},
      {"smiles": "CCOc1ccc(-c2csc(N3CCC(C(N)=O)CC3)n2)cc1", "activity change, negative = inhibition": "inactive: -29.5%"}
    ]}
  ]
}
